Data source: PubChem BioAssay AID1259424 (University of Nebraska Medical Center, 2018)
Purpose: 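Seek colon cancer survival genes behaving like KSR1, using a six-gene signature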 (primary screen). System: human HCT116 colon cancer cells. Reagent: siRNA pool against human genes, 50 nM. Read-out: 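Six signature mRNAs by branched-DNA multiplex assay, scaled to two housekeeping genes and non-targeting median, log2; matched to mean KSR1 knockdown profile by Pearson correlation and euclidean distance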. Scale: mean correlation with KSR1 profile: higher = expression change more like KSR1 knockdown.
The whole screen tested about 14,000 reagents; this is a part drawn at random. 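Higher correlation or smaller distance means closer resemblance to KSR1 loss; control wells, including KSR1 knockdowns, recur on many plates.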 Not all columns of the deposit are shown. The record does not give: the time to read-out.

With knock-down of ELMOD3, the record shows mean correlation with KSR1 profile -0.341.
Silencing of TSC22D3 came out at: mean correlation with KSR1 profile -0.338.
MTHFSD gave mean correlation with KSR1 profile 0.676.
Against POLR2D the deposit lists mean correlation with KSR1 profile -0.334.
After knock-down of DCAF17 the results were mean correlation with KSR1 profile 0.103.
Knock-down of TRAPPC3 resulted in: mean correlation with KSR1 profile 0.0618.
Against SERPINB9, the entry reads mean correlation with KSR1 profile 0.387.
With knock-down of XCL1 the results were mean correlation with KSR1 profile -0.252.
After knock-down of ITGA8 the results were mean correlation with KSR1 profile -0.777.
ANAPC5 scored mean correlation with KSR1 profile -0.498.
After knock-down of EPN2 the results were mean correlation with KSR1 profile 0.15.
Depletion of HAUS1 came out at: mean correlation with KSR1 profile -0.379.
Against TMEM204 the deposit lists mean correlation with KSR1 profile 0.812.
After knock-down of PFDN6, the screen gave mean correlation with KSR1 profile -0.408.
Depletion of RBMS3 gave: mean correlation with KSR1 profile 0.409.
Depletion of IGDCC3 gave: mean correlation with KSR1 profile -0.378.
For HRC, the entry reads mean correlation with KSR1 profile -0.687.
INPP5F gave mean correlation with KSR1 profile 0.0586.
Against OTUD4 the deposit lists mean correlation with KSR1 profile -0.519.

Reformatted: results already given
| gene knocked down | mean correlation with KSR1 profile |
| --- | --- |
| IGDCC3 | -0.378 |
| HRC | -0.687 |
